# Some of the results follow.
# The chains behind the UniProt entries cited, without tags or fusion partners. Where a name states a change or a piece, a line headed by the entry shows the natural chain unless it says otherwise.
# UniProt Q9NRY5: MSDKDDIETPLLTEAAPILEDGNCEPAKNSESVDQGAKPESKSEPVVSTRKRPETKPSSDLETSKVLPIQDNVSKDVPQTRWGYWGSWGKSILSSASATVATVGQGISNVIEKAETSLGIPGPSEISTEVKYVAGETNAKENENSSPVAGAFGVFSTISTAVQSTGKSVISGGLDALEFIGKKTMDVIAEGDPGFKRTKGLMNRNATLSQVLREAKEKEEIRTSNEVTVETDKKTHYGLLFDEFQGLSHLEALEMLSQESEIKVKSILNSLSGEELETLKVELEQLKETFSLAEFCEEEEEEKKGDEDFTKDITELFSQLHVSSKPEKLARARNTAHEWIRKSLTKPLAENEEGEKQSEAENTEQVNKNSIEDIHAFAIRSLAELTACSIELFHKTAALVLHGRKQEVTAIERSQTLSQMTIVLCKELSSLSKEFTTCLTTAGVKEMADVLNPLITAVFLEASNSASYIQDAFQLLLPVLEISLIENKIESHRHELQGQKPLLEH
# UniProt Q9NX05: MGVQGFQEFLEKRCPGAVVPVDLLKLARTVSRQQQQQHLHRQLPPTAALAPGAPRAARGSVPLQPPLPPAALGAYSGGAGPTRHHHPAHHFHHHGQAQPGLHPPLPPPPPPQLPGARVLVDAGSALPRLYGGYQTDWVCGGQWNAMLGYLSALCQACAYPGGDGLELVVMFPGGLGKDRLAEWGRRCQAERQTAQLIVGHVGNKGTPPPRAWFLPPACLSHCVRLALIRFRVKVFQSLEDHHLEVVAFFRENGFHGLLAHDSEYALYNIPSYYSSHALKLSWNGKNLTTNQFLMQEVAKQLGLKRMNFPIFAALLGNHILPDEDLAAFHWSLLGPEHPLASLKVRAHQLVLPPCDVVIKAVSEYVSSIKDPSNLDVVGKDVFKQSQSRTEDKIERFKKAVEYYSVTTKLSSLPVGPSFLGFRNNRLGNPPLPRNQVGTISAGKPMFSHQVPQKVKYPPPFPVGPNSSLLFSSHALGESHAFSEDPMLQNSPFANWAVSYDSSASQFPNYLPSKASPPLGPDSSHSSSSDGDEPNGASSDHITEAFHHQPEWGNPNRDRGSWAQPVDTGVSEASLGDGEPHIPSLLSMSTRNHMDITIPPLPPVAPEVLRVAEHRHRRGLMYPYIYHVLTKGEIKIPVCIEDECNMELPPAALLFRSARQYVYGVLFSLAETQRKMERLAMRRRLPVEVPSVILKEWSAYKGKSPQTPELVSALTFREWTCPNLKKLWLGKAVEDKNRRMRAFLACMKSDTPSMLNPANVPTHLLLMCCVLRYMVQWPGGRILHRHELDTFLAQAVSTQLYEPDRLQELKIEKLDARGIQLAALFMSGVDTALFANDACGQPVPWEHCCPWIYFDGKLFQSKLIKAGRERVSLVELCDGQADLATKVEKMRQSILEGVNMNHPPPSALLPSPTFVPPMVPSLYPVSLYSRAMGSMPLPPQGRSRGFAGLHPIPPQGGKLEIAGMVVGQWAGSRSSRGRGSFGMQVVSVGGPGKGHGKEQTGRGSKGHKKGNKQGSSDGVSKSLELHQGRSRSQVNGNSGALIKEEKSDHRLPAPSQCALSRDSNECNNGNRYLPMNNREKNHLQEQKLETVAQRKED
# UniProt O60447: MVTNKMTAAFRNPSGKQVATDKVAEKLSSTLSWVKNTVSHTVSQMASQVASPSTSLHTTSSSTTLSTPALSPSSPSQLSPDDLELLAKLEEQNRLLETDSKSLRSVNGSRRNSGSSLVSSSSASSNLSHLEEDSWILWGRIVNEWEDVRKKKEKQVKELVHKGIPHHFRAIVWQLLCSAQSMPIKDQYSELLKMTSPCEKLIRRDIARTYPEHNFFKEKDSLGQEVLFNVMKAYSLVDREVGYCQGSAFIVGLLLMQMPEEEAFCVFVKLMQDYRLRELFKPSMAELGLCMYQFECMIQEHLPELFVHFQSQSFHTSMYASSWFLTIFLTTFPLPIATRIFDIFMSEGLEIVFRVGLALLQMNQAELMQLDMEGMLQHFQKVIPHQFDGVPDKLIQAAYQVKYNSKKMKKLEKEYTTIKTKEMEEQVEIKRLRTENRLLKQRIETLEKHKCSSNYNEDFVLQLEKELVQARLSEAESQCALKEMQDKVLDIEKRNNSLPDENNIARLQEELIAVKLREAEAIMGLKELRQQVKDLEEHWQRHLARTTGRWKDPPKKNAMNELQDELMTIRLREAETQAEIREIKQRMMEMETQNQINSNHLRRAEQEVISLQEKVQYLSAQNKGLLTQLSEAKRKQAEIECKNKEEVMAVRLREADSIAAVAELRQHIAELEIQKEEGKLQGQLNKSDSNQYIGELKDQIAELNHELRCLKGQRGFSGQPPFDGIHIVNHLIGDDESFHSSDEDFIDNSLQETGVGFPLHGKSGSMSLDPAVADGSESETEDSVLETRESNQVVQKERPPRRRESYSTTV
# UniProt O60427: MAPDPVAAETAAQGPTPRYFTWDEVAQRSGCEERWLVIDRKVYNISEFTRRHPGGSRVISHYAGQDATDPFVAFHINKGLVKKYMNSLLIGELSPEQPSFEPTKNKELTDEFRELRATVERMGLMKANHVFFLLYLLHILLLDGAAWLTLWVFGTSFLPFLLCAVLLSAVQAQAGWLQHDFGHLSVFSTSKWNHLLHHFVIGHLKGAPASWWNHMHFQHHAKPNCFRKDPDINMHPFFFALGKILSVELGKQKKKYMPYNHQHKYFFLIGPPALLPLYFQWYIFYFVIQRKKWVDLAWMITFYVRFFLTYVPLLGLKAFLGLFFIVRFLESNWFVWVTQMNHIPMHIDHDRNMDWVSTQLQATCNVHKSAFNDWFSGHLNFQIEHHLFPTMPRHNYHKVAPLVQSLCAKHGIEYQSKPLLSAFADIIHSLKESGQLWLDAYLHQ
# UniProt Q9NVH0: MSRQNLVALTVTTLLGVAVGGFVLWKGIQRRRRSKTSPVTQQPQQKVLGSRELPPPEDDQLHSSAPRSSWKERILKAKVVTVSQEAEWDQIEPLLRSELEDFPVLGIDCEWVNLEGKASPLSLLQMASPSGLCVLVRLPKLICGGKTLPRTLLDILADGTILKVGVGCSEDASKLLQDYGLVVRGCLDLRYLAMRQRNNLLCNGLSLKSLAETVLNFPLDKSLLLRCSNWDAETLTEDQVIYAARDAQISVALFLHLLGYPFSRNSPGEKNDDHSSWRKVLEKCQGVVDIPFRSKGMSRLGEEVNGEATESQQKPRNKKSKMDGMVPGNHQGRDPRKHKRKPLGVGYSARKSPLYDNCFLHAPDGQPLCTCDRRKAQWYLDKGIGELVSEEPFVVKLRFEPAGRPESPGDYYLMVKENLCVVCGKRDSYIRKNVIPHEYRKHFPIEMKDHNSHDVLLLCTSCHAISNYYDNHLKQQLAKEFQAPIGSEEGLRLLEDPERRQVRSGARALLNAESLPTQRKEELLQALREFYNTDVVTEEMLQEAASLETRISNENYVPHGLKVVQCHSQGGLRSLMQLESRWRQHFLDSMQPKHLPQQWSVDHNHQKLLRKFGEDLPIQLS
# UniProt Q9BS26: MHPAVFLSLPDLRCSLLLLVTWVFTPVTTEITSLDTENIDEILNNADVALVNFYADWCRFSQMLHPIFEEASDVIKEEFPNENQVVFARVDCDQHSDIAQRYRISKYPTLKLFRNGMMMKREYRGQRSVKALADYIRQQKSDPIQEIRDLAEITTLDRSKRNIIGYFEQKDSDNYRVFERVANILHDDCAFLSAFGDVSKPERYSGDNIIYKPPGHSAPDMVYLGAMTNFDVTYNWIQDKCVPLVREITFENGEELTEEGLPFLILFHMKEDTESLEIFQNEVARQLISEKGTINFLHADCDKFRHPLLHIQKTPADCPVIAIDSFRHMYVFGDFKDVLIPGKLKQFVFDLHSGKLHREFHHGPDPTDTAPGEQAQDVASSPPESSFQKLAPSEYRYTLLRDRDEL
# Compound: Cc1cc(ccc1-c1ccccc1)C(=O)N1CCCN(CC1)C(=O)CCl [compound 10]
# Experiment: probe-labelled cysteine peptide fold change vs DMSO (competition) (log2 fold change); higher = less target engagement (more negative = stronger competition)
# Details: THP-1, incubation time: 4 h
# 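Further: competitive profiling in live THP-1 cells: cysteine peptides tagged with an iodoacetamide desthiobiotin (IA-DTB) probe, intensity after compound treatment relative to DMSO-treated cells.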
Target,probe-labelled cysteine peptide fold change (10 µM),probe-labelled cysteine peptide fold change (50 µM)
FAM114A2_Q9NRY5_438_EFTTCLTTAGVK (UniProt Q9NRY5),0.19,0.0888
FAM120C_Q9NX05_745_AFLACMK (UniProt Q9NX05),-0.0917,-0.151
EVI5_O60447_479_LSEAESQCALK (UniProt O60447),-0.223,-0.131
FADS1_O60427_407_VAPLVQSLCAK (UniProt O60427),0.0874,-0.188
EXD2_Q9NVH0_202_NNLLCNGLSLK (UniProt Q9NVH0),-0.059,-0.941
ERP44_Q9BS26_189_VANILHDDCAFLSAFGDVSK (UniProt Q9BS26),-0.195,0.515

# From the supplement of paper PMC12067093, “Discovery and optimisation of a covalent ligand for TRIM25 and its application to targeted protein ubiquitination” (Chemical Science, 2025)
